# In article PMC4877593, “Design and Synthesis of Potent in Vitro and in Vivo Anticancer Agents Based on 1-(3′,4′,5′-Trimethoxyphenyl)-2-Aryl-1H-Imidazole” (Scientific Reports, 2016):
# Tests used:
# [1] = tested on: panel of seven human tumor cell lines; experiment: Antiproliferative activity across the panel of seven human tumor cell lines; assay type: cell-based
# Protocol: Human T-cell leukemia (CCRF-CEM and Jurkat) and human B-cell leukemia (SEM) cells were grown in RPMI-1640 medium (Gibco, Milano, Italy). Breast adenocarcinoma (MCF7), human cervix carcinoma (HeLa), and human colon adenocarcinoma (HT-29) cells were grown in DMEM medium (Gibco, Milano, Italy), all supplemented with 115 units/mL penicillin G (Gibco, Milano, Italy), 115 μg/mL streptomycin (Invitrogen, Milano, Italy), and 10% fetal bovine serum (Invitrogen, Milano, Italy). Stock solutions (10 mM) of the different compounds were obtained by dissolving them in dimethyl sulfoxide (DMSO). Individual wells of a 96-well tissue culture microtiter plate were inoculated with 100 μL of complete medium containing 8 × 10^3 cells. The plates were incubated at 37 °C in a humidified 5% CO2 incubator for 18 h prior to the experiments. After medium removal, 100 μL of fresh medium containing the test compound at different concentrations was added to each well in triplicate and incubated at 37 °C for 72 h. The percentage of DMSO in the medium never exceeded 0.25%. This was also the maximum DMSO concentration in all cell-based assays described below. […] Different concentrations of the test compounds were added, and viability was determined 72 h later by the MTT test. For cytotoxicity evaluations in resting PBL cultures, non-adherent cells were resuspended (5 × 10^5 cells/mL) and treated for 72 h with the test compounds, as described above.
# [2] = tested on: bovine brain tubulin; experiment: Inhibition of tubulin polymerization (turbidimetry); assay type: biochemical
# Protocol: To evaluate the effect of the compounds on tubulin assembly in vitro[22], varying concentrations of compounds were preincubated with 10 μM bovine brain tubulin in glutamate buffer at 30 °C and then cooled to 0 °C. After addition of 0.4 mM GTP (final concentration), the mixtures were transferred to 0 °C cuvettes in a recording spectrophotometer equipped with an electronic temperature controller and warmed to 30 °C. Tubulin assembly was followed turbidimetrically at 350 nm. […] The ability of the test compounds to inhibit colchicine binding to tubulin was measured as described, except that the reaction mixtures contained 1 μM tubulin, 5 μM [^3H]colchicine and 1 or 5 μM test compound.
smiles,measurement,setting,value
"COc1cc(-n2ccnc2-c2ccc3ccccc3c2)cc(OC)c1OC [Compound 3c, reference compound]",less active than 4o (antiproliferative),[1]; from average IC50 values,12 fold
"COc1cc(-n2ccnc2-c2ccc(C)cc2)cc(OC)c1OC [Compound 4a, 1-(3′,4′,5′-Trimethoxyphenyl)-2-p-tolyl-1H-imidazole]",drop in antiproliferative activity relative to 3b,[1]; six of the seven cancer cell lines (exception HL-60),2–12 fold
"CCOc1ccc(-c2nccn2-c2cc(OC)c(OC)c(OC)c2)cc1 [Compound 4k, 2-(4′-Ethoxyphenyl)-1-(3′,4′,5′-trimethoxyphenyl)-1H-imidazole]",more active than the 2′-naphthyl derivative 3c (antiproliferative),[1]; from average IC50 values,2 fold
same,improvement of antiproliferative activity relative to 3b,[1]; seven cell lines,57-933 fold
"CCOc1ccc(-c2nccn2-c2cc(OC)c(OC)c(OC)c2)cc1F [Compound 4n, 2-(3′-Fluoro-4′-ethoxyphenyl)-1-(3′,4′,5′-trimethoxyphenyl)-1H-imidazole]",more active than the 2′-naphthyl derivative 3c (antiproliferative),[1]; from average IC50 values,2 fold
"CCOc1ccc(-c2nccn2-c2cc(OC)c(OC)c(OC)c2)cc1Cl [Compound 4o, 2-(3′-Chloro-4′-ethoxyphenyl)-1-(3′,4′,5′-trimethoxyphenyl)-1H-imidazole]",more potent than CA-4 as inhibitor of tubulin assembly,[2],1.5 fold and 1.5-2 fold

# Several values for one entry are separate records, joined by “and”; a condition that tells them apart may be missing. Equal values may be shown once.
